Taken from: PubChem BioAssay AID652243 (Drosophila RNAi Screening Center, 2013)
Screen: 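Fly genes required for human androgen receptor driven transcription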 (primary screen). Cells: Drosophila S2R+ cells. Reagents: long dsRNA against Drosophila genes. Timing: 72 h (48 h, then 24 h hormone). Challenge: synthetic androgen R1881 at 10 nM for 24 h. Read-out: 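Firefly light from an androgen-responsive reporter and Renilla control light per well, raw and unnormalised, for each of two replicates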. Reading the numbers: firefly reporter light: higher = more light from androgen-responsive reporter; Renilla control light: higher = more constitutive control signal (cell number, transfection). Active means: 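Across duplicate plates, a knock-down whose log firefly/Renilla ratio shifted a set fold down or up from the GFP/LacZ control mean was a hit; the downward cut appears as both 1.5 and 3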. Meaning of the calls: active = hit: reporter lowered or raised; inactive = no hit.
The screen tested about 24,000 reagents; shown is a random part of those with a known target gene and a result. Over the whole deposit, 246 (1%) got an active call. 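Plates not normalised; calls are printed but the firefly/Renilla ratio behind them is not deposited; fold cut for lowering reported inconsistently.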 The raw values are shown without normalisation. Reagents against one gene are numbered here. Names joined by + are all predicted targets of the reagent. Reagent sequences are not shown. The record does not give: the amount of reagent.

target gene | dsRNA no. | firefly reporter light, replicate 1 | firefly reporter light, replicate 2 | Renilla control light, replicate 1 | Renilla control light, replicate 2 | activity call
bigmax | 1 | 1.54e5 | 85452 | 9.51e5 | 9.01e5 | inactive
bigmax | 2 | 2.48e5 | 2.12e5 | 4.30e5 | 5.29e5 | inactive
Ir76b (Ionotropic receptor 76b) | 1 | 2.66e5 | 2.56e5 | 2.59e6 | 3.37e6 | inactive
CG17493 | 1 | 2.61e5 | 2.04e5 | 1.29e6 | 9.29e5 | inactive
Alp2 (Alkaline phosphatase 2) | 1 | 3.56e5 | 3.69e5 | 2.36e6 | 2.22e6 | inactive
Alp2 (Alkaline phosphatase 2) | 2 | 2.19e5 | 1.42e5 | 3.62e5 | 3.24e5 | inactive
en (engrailed) | 1 | 3.26e5 | 2.41e5 | 1.54e6 | 1.21e6 | inactive
en (engrailed) | 2 | 5.30e5 | 3.49e5 | 6.61e5 | 5.33e5 | inactive
CG30395 | 1 | 3.46e5 | 3.96e5 | 4.54e5 | 2.96e5 | inactive
Eig71Ek | 1 | 3.99e5 | 2.72e5 | 3.11e6 | 2.34e6 | inactive
CG4229 | 1 | 39550 | 49914 | 4.82e5 | 3.63e5 | inactive
CG9010 | 1 | 1.18e6 | 1.08e6 | 2.32e6 | 1.73e6 | inactive
Etf-QO (Electron transfer flavoprotein-ubiquinone oxidoreductase) | 1 | 1.64e5 | 1.35e5 | 9.51e5 | 9.56e5 | inactive
Kdm4B (Lysine demethylase 4B) | 1 | 1.11e6 | 1.31e6 | 1.14e6 | 1.21e6 | inactive
Kdm4B (Lysine demethylase 4B) | 2 | 2.49e5 | 2.76e5 | 7.07e5 | 8.15e5 | inactive
plh (pasang lhamu) | 1 | 69527 | 73946 | 1.51e6 | 1.95e6 | inactive
bru3 (bruno 3) | 1 | 4.96e5 | 4.80e5 | 2.56e6 | 2.00e6 | inactive
bru3 (bruno 3) | 2 | 7.09e5 | 4.59e5 | 1.86e6 | 1.69e6 | inactive
bru3 (bruno 3) | 3 | 2.82e5 | 3.82e5 | 2.88e6 | 2.56e6 | inactive
bru3 (bruno 3) | 4 | 3.02e5 | 4.24e5 | 1.37e6 | 7.86e5 | inactive
bru3 (bruno 3) | 5 | 8.57e5 | 1.01e6 | 1.58e6 | 1.96e6 | inactive
bru3 (bruno 3) | 6 | 6.37e5 | 5.76e5 | 1.07e6 | 1.04e6 | inactive
mad2 | 1 | 1.38e5 | 99785 | 1.20e6 | 1.08e6 | inactive
CG13038 | 1 | 2.65e5 | 2.99e5 | 2.77e6 | 2.88e6 | inactive
Dora (Dorado) | 1 | 61138 | 35528 | 3.67e5 | 1.71e5 | inactive
Dora (Dorado) | 2 | 4.02e5 | 1.56e5 | 1.57e6 | 6.14e5 | inactive
Dora (Dorado) | 3 | 1.57e5 | 1.02e5 | 7.84e5 | 3.27e5 | inactive
Dora (Dorado) | 4 | 2.40e5 | 1.59e5 | 5.63e5 | 2.71e5 | inactive
Dora (Dorado) | 5 | 4.85e5 | 3.28e5 | 9.76e5 | 7.25e5 | inactive
Dora (Dorado) | 6 | 2.24e5 | 4.76e5 | 4.92e5 | 1.21e6 | inactive
CG4835 | 1 | 2.53e5 | 2.20e5 | 1.57e6 | 9.92e5 | inactive
CG4835 | 2 | 6.80e5 | 9.34e5 | 7.51e5 | 8.46e5 | inactive
PolA2 (DNA polymerase alpha subunit 2) | 1 | 1.09e5 | 92688 | 1.92e6 | 1.85e6 | inactive
CG18048 | 1 | 1.15e5 | 84838 | 2.80e6 | 2.24e6 | inactive
CG18048 | 2 | 3.38e5 | 3.08e5 | 1.79e6 | 1.26e6 | active
Sin1 (SAPK-interacting protein 1) | 1 | 1.20e6 | 1.39e6 | 2.08e6 | 2.41e6 | inactive
Lcp2 (Larval cuticle protein 2) | 1 | 3.61e5 | 3.96e5 | 2.25e6 | 1.87e6 | inactive
CG1271 | 1 | 1.59e6 | 1.01e6 | 2.32e6 | 1.96e6 | inactive
CG1271 | 2 | – | – | – | – | inactive
CG1271 | 3 | – | – | – | – | inactive
E(spl)m3-HLH (Enhancer of split m3, helix-loop-helix) | 1 | 4.40e5 | 8.45e5 | 1.40e6 | 2.46e6 | inactive
E(spl)m3-HLH (Enhancer of split m3, helix-loop-helix) | 2 | 2.83e5 | 6.79e5 | 9.30e5 | 1.39e6 | inactive
Nup160 + RfC38 | 1 | 9.78e5 | 8.79e5 | 1.95e6 | 2.09e6 | inactive
mbo (members only) | 1 | 85623 | 96156 | 4.96e5 | 8.94e5 | inactive
CG32797 | 1 | 5.34e5 | 6.63e5 | 1.62e6 | 1.85e6 | inactive
Msr-110 | 1 | 4.10e5 | 3.21e5 | 1.00e6 | 1.32e6 | inactive
Msr-110 | 2 | 5.42e5 | 5.09e5 | 5.89e5 | 7.34e5 | inactive
Cyp4e3 (Cytochrome P450 4e3) | 1 | 1.54e5 | 69483 | 1.61e6 | 1.00e6 | inactive
Cyp4e3 (Cytochrome P450 4e3) | 2 | 3.11e5 | 2.50e5 | 6.97e5 | 8.04e5 | inactive
CG30340 | 1 | 2.85e5 | 3.05e5 | 6.73e5 | 6.55e5 | inactive
CG33523 | 1 | 1.73e5 | 1.55e5 | 2.52e6 | 2.03e6 | inactive
CG33523 | 2 | 8.50e5 | 9.48e5 | 2.84e6 | 1.94e6 | inactive
stck (steamer duck) | 1 | 52677 | 59224 | 1.68e6 | 1.51e6 | inactive
eIF3i (eukaryotic translation initiation factor 3 subunit i) | 1 | 8.04e5 | 1.05e6 | 1.44e6 | 1.50e6 | inactive
Rb97D (Ribonuclear protein at 97D) | 1 | 62601 | 51526 | 1.65e6 | 2.06e6 | inactive
Rb97D (Ribonuclear protein at 97D) | 2 | 2.38e5 | 3.00e5 | 5.60e5 | 4.81e5 | inactive
HBS1 | 1 | 1.64e6 | 1.07e6 | 2.78e6 | 2.16e6 | inactive
HBS1 | 2 | 4.10e5 | 6.37e5 | 5.16e5 | 6.26e5 | inactive
